No constants are given. Whether binding was seen depends on the method and setting. In cells and extracts the contact can be indirect. Some entries that bind do so weakly or less than the wild type. Tags and fused reporters may be left off the sequences shown.
Experiments:
[1] = biological target: T1, GFP–TM–Eme (transmembrane domain of emerin fused to GFP) (human) (UniProt P50402); test: co-IP; GFP-Trap beads on lysates of C2C12 cells transfected with GFP fusions; western blot for endogenous emerin or β-DG
T1 sequence: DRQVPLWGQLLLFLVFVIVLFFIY

[2] = biological target: T2, HA-tagged emerin mutant ΔVal236–Phe241 (human) (UniProt P50402); test: co-IP; anti-HA antibodies and protein G-agarose on whole cell extracts (1 mg) of C2C12 cells transfected with HA-tagged emerin constructs, 4 °C, washes with RIPA buffer (300-mM NaCl); western blot for endogenous β-DG
T2 sequence: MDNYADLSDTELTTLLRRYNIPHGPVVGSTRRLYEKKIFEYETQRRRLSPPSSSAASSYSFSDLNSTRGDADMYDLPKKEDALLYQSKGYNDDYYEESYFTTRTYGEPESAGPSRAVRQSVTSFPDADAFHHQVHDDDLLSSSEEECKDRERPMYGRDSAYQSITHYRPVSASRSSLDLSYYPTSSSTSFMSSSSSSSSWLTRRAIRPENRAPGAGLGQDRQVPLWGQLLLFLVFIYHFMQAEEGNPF

binding [1]: no binding
binding [2]: binds
B1: endogenous β-DG of C2C12 myoblasts (protein, UniProt Q62165 652-893)
chain: SIVVEWTNNTLPLEPCPKEQIIGLSRRIADENGKPRPAFSNALEPDFKALSIAVTGSGSCRHLQFIPVAPPSPGSSAAPATEVPDRDPEKSSEDDVYLHTVIPAVVVAAILLIAGIIAMICYRKKRKGKLTLEDQATFIKKGVPIIFADELDDSKPPPSSSMPLILQEEKAPLPPPEYPNQSMPETTPLNQDTVGEYTPLRDEDPNAPPYQPPPPFTAPMEGKGSRPKNMTPYRSPPPYVPP
